PubChem BioAssay AID602196, INSERM | 2012
In all, the deposit lists about 23,000 reagents; this is an unselected part. Over the whole deposit, 455 (2%) got an active call. 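Active includes both protection and sensitisation; some change values fall well beyond the stated -50 to +50 range.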 Unmarked entries are inactive. The numbers tell different reagents against one gene apart. No sequences are given here. Not stated in the record: the amount of reagent.

Aim: 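Modifiers of cisplatin sensitivity in A549 cells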
System: human A549 lung cancer cells
Reagents: siRNA pair against human genes
Timing: 48 h transfection before cisplatin; time from cisplatin to read-out not stated
Conditions: cisplatin at a dose killing half of control-siRNA cells; exact dose and duration not given
Measurement: 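Cisplatin cell death as a shift from the 50% death seen with control siRNA; siRNAs toxic or growth-blocking alone scored 0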
Reading the numbers: two-siRNA summed score (-2 to +2): higher = both siRNAs protect from cisplatin killing; -2 means both sensitise; mean protection from cisplatin (shift in death) and protection from cisplatin (shift in death), siRNA C and protection from cisplatin (shift in death), siRNA D: higher = protection from cisplatin killing
Active means: 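Each siRNA scores 0 if harmful alone by LDH or WST-1, otherwise +1 if it reduces and -1 if it increases cisplatin killing; a gene is active when both siRNAs agree (sum +2 or -2)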
Calls: active = both siRNAs shift cisplatin killing the same way; inactive = no consistent shift, or siRNA harmful alone

| Target gene | reagent no. | two-siRNA summed score (-2 to +2) | mean protection from cisplatin (shift in death) (%) | protection from cisplatin (shift in death), siRNA C (%) | protection from cisplatin (shift in death), siRNA D (%) |
| --- | --- | --- | --- | --- | --- |
| COL4A6 | 1 | 1 | 16.4 | 14.7 | 18.1 |
| KRTAP4-4 | 1 | 0 | 3.3 | 2.3 | 4.3 |
| SGPL1 | 1 | 0 | -0.3 | 14.3 | -14.9 |
| BCL7B | 1 | 0 | 7 | 2.9 | 11 |
| GFM2 | 1 | 0 | 1.9 | 3.6 | 0.1 |
| LOC401887 | 1 | 0 | 14 | 20.4 | 7.5 |
| SLC35E2A | 1 | -1 | -5.9 | -14.3 | 2.5 |
| SPNS3 | 1 | 0 | 2.6 | -7.5 | 12.7 |
| TNFSF15 | 1 | -1 | 2.2 | -12.1 | 16.5 |
| CCDC110 | 1 | 1 | 7 | -2.4 | 16.4 |
| FNDC8 | 1 | 0 | -2.7 | 4 | -9.4 |
| PFDN1 | 1 | 0 | 13.3 | 12.9 | 13.7 |
| TMEM106B | 1 | 0 | 3.9 | 5.8 | 2.1 |
| RBMXL1 | 1 | 0 | 14.3 | 20.9 | 7.7 |
| CALN1 | 1 | 0 | 11.8 | 13.6 | 10 |
| CALN1 | 2 | 0 | 14.4 | 11.1 | 17.7 |
| LOC440043 | 1 | 0 | 13.1 | 18.8 | 7.4 |
| RHOH | 1 | -1 | -0.5 | 10.4 | -11.5 |
| ZFYVE26 | 1 | 0 | 1.1 | -5.9 | 8 |
| LOC389295 | 1 | 0 | -8.1 | -14.1 | -2 |
| LOC389031 | 1 | 1 | 19.4 | 30.8 | 8 |
| COX7A1 | 1 | 1 | 8.9 | 6.8 | 10.9 |
| PIERCE1 | 1 | 1 | 9.7 | 14.3 | 5.1 |
| PWP1 | 1 | 1 | 9.9 | 11.7 | 8.1 |
| TMEM53 | 1 | 1 | 7.2 | -5.6 | 20.1 |
| TAS2R46 | 1 | -1 | -5.7 | -18.2 | 6.8 |
| FOXJ2 | 1 | 1 | 5.3 | 16 | -5.4 |
| ZCCHC13 | 1 | 0 | 2 | -1.6 | 5.7 |
| LINC02991 | 1 | 0 | 0.3 | -5.5 | 6.2 |
| COL20A1 | 1 | 0 | 5.1 | 4.6 | 5.6 |
| PNMA2 | 1 | 0 | 8.9 | 5.2 | 12.5 |
| LOC389958 | 1 | 2 (active) | 24.2 | 26.9 | 21.6 |
| PCM1 | 1 | 0 | -1.7 | -0.3 | -3.2 |
| LINC02245 | 1 | 0 | 3.8 | 7.6 | 0 |

7 successive entries already listed, for reference:
| Target gene | reagent no. | two-siRNA summed score (-2 to +2) | mean protection from cisplatin (shift in death) (%) | protection from cisplatin (shift in death), siRNA C (%) | protection from cisplatin (shift in death), siRNA D (%) |
| --- | --- | --- | --- | --- | --- |
| SPNS3 | 1 | 0 | 2.6 | -7.5 | 12.7 |
| TNFSF15 | 1 | -1 | 2.2 | -12.1 | 16.5 |
| CCDC110 | 1 | 1 | 7 | -2.4 | 16.4 |
| FNDC8 | 1 | 0 | -2.7 | 4 | -9.4 |
| PFDN1 | 1 | 0 | 13.3 | 12.9 | 13.7 |
| TMEM106B | 1 | 0 | 3.9 | 5.8 | 2.1 |
| RBMXL1 | 1 | 0 | 14.3 | 20.9 | 7.7 |

The results go on:
| Target gene | reagent no. | two-siRNA summed score (-2 to +2) | mean protection from cisplatin (shift in death) (%) | protection from cisplatin (shift in death), siRNA C (%) | protection from cisplatin (shift in death), siRNA D (%) |
| --- | --- | --- | --- | --- | --- |
| LOC440720 | 1 | 0 | 6.4 | 17.5 | -4.6 |
| RSPH6A | 1 | 0 | 12.7 | 29.3 | -3.9 |
| C10orf55 | 1 | 1 | 21.4 | 9.8 | 33 |
| C2CD4A | 1 | 0 | 1 | 3.7 | -1.6 |
| LOC440478 | 1 | 1 | 23.6 | 24.3 | 22.9 |
| C8orf48 | 1 | 0 | 4.3 | 4 | 4.6 |
| KDF1 | 1 | -1 | -14.2 | -18.6 | -9.7 |
| GMPR | 1 | 0 | 2.3 | -4.7 | 9.4 |
| LOC286297 | 1 | 0 | 25.4 | 18.9 | 31.9 |
| SNAP29 | 1 | 0 | 3.2 | 9.5 | -3.1 |
| ALG1 | 1 | 0 | -2.2 | -9 | 4.5 |
| LOC392617 | 1 | 0 | 4.4 | 6.7 | 2 |
| LOC392758 | 1 | 0 | -3.3 | -6 | -0.6 |
| LOC442265 | 1 | 1 | 22.9 | 35 | 10.9 |
| LOC402269 (retired record) | 1 | -1 | -7.4 | -9.3 | -5.5 |
| LOC441349 | 1 | 0 | 11.3 | 24.3 | -1.6 |
| NFXL1 | 1 | 0 | 2.1 | 5.9 | -1.6 |
| IMP3 | 1 | 0 | 3.9 | 3.1 | 4.6 |
| KRT222 | 1 | 1 | 9.1 | 12.5 | 5.8 |
| ABHD17B | 1 | 0 | -1.5 | -4.4 | 1.4 |
| APOL6 | 1 | 0 | -4 | -15 | 6.9 |
| CENPBD2P | 1 | 0 | 7.2 | 7.9 | 6.4 |
| MIA | 1 | -1 | 0 | 24.9 | -25 |
